Assay results from patent US6696484B2, “Method and compositions for regulation of 5-alpha reductase activity” (University of Chicago Office of Technology and Intellectual …, priority 1997, dated 2004).
For at least one compound, name, drawing or mass did not settle the structure.

Tested on: 5α-reductase
Experiment: Whole-cell 5α-reductase assay, isozyme not given
Assay type: cell-based, human
Settings: isozyme not stated
Description: Intact cells containing 5α-reductase, their microsomes, or nuclear preparations can also be used to screen 5α-reductase inhibitors.

COc1cc(CCC(=O)CC(=O)CCc2ccc(O)c(OC)c2)ccc1O [Tetrahydrocurcumin]
inhibitory activity in the whole-cell assay: significant activity
